Test results: paper PMC4906249
These are yes or no findings as the source states them, for the method shown. For part of these data: In cells and extracts the contact can be indirect. Some results given as binding are weak or reduced against the parent protein; the word gives no strength. For part of these data: Where a sequence is shown, tags or fusion partners need not be part of it.

Protein sequences, listed by entry. Tags and fused reporters are not part of them.
UniProt O95251: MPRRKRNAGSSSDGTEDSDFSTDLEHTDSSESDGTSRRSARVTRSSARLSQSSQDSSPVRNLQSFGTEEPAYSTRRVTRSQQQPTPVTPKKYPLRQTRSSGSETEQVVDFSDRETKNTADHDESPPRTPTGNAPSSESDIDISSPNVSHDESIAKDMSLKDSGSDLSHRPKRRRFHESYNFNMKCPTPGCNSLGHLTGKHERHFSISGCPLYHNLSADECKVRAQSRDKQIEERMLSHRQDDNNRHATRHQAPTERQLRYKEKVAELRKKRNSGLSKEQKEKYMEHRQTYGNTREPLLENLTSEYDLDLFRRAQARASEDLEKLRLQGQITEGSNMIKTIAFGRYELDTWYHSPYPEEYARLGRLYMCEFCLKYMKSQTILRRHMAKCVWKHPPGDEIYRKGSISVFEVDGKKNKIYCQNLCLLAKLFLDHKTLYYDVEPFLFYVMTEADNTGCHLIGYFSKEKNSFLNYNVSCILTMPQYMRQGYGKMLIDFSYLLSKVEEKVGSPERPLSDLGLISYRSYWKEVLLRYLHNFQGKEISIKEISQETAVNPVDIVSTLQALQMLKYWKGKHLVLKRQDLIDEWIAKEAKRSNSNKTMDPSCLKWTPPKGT
UniProt Q8NCD3: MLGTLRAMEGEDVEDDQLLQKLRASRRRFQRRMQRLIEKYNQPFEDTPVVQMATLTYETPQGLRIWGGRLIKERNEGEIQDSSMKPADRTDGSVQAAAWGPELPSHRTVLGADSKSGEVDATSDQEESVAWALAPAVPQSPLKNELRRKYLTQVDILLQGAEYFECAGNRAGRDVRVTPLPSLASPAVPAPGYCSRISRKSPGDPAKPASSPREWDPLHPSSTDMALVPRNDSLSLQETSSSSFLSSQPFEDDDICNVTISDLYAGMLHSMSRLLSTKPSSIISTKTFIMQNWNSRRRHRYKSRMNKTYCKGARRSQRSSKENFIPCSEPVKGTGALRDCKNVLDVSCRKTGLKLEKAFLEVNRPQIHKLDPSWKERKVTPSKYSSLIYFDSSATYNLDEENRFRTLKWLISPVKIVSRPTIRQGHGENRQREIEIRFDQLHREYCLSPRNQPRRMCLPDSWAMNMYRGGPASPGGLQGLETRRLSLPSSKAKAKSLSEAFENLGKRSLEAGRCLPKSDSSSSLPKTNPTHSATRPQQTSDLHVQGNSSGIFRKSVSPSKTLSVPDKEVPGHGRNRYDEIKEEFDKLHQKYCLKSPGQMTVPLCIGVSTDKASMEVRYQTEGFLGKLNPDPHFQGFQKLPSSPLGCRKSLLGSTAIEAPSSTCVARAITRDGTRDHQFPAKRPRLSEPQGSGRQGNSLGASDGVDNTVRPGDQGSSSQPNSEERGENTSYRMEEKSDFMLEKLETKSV
UniProt O95696: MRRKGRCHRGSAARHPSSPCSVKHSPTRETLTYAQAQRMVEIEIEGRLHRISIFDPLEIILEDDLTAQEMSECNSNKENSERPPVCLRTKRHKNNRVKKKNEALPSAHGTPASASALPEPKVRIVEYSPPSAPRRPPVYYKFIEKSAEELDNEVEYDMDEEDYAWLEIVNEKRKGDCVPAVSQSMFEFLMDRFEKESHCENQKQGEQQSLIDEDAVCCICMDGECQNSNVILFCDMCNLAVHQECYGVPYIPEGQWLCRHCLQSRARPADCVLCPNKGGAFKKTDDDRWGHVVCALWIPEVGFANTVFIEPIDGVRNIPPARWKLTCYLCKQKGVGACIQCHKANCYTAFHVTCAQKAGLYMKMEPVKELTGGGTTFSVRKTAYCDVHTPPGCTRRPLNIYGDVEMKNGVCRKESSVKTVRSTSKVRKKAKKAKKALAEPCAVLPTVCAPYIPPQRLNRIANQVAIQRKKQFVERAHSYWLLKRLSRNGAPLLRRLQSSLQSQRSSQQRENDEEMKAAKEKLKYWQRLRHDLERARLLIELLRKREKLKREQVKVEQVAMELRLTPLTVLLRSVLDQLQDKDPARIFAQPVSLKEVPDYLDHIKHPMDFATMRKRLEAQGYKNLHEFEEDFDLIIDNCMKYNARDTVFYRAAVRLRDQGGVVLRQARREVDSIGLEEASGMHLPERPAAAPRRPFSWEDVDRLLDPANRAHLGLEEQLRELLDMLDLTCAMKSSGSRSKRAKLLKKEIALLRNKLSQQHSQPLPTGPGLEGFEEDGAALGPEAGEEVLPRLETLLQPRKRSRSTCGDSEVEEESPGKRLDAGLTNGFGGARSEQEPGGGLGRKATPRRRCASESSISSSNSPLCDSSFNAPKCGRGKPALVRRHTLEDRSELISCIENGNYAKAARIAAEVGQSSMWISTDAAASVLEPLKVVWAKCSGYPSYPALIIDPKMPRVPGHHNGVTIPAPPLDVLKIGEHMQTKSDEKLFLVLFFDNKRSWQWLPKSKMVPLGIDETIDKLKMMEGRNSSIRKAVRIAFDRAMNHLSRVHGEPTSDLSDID

Legend:
[1] = molecular target: tetR-EYFP-hMis18β (human) (UniProt O43482); test: fluorescence microscopy-based interaction-trap assay; tetR-EYFP fusion tethered to the ectopic alphoid^tetO DNA integration site in HeLa-Int-03 cells; recruitment of Halo-tag-fused prey seen with Halo-TMR ligand
[2] = molecular target: M18BP1 (immunoprecipitated with anti-M18BP1 antibody) (human) (UniProt Q6P0N0); test: co-IP; cytosolic extract of transfected HeLa or 293T cells, immunoprecipitation with anti-KAT7 and anti-M18BP1 antibodies on Protein G Dynabeads; ectopically expressed tagged proteins detected by immunoblot
[3] = molecular target: KAT7 (immunoprecipitated with anti-KAT7 antibody) (human) (UniProt O95251); test: as above
[4] = molecular target: tetR-EYFP-fused M18BP1 amino-terminal domain (1–375) (human) (UniProt Q6P0N0); test: fluorescence microscopy-based interaction-trap assay; tetR-EYFP fusion tethered to the ectopic alphoid^tetO DNA integration site in HeLa-Int-03 cells; recruitment of Halo-tag-fused prey seen with Halo-TMR ligand
[5] = molecular target: T1, tetR-EYFP-fused M18BP1 carboxyl-terminal domain (851–1,132) (human) (UniProt Q6P0N0); test: as above
T1 sequence: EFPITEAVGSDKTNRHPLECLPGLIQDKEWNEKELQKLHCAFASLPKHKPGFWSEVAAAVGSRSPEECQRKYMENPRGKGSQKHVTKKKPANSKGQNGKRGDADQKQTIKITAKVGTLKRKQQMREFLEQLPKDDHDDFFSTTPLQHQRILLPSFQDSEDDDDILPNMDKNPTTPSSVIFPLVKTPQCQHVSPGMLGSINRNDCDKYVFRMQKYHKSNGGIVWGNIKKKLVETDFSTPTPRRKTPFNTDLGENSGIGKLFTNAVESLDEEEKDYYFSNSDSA

Halo-fused ING5 (from UniProt Q8WYH8 1-240)
binding [1]: binds

ING5 (ectopically expressed tagged protein, co-immunoprecipitation) (from UniProt Q8WYH8 1-240)
binding [2]: binds
binding [3]: binds

Halo-fused ING4 (from UniProt Q9UNL4 1-249)
binding [1]: binds

HJURP (ectopically expressed tagged protein, co-immunoprecipitation) (from UniProt Q8NCD3 1-748)
binding [2]: binds
binding [3]: binds

ING4 (ectopically expressed tagged protein, co-immunoprecipitation) (from UniProt Q9UNL4 1-249)
binding [2]: binds
binding [3]: binds

BRPF2 (ectopically expressed tagged protein, co-immunoprecipitation) (from UniProt O95696 1-1058)
binding [2]: binds

Halo-tag fused KAT7 (from UniProt O95251 1-611) (enzyme)
binding [4]: binds
binding [5]: binds

Halo-fused BRPF2 (from UniProt O95696 1-1058)
binding [5]: binds
